Test results taken from publication PMC12682068.

Assays:
[1] = target: AcCaS-nLuc (kiwifruit (Actinidia chinensis var. chinensis)); experiment: split reporter; luciferase complementation imaging (LCI); nLuc and cLuc constructs co-expressed in N. benthamiana leaves, 0.5 mM D-luciferin, imaged at 2 dpi
[2] = target: AcCaS^N121A-nLuc (kiwifruit (Actinidia chinensis var. chinensis)); experiment: as above

B1: HopAU1-cLuc (protein, UniProt G9I6Y2 1-731)
chain: MKPVQSVSATQHYNPLTNIGQEASCSHEISGITQTEGTQATVATTQTAEQLTTARVRDITAAAKAIPDGTTVMSRKPEDLSQLQIAYLAAKNAPTHPDLYLKLCETFRVHDERHASEGHENICAKTMTARIDDDAIRVMAYASRGMHGGDVNNFLKFSFNSGLPNPISSALPSMLTFGASSFIGAVHGPWSGFGSALAFAAAKPFMAGGIQPAIVSLCDNIRGRNAPTVLAKGEVNDEIWLDAAAQTLEGLNEDTRRALTSFDDAVQAAITSVGIRDPKFLETDEGLELFFDHLSDTHFNGLREALEGVNNALQNTAPQTRESLRALEEASRPNMLEQRETTLKAEFSNLRQKEGNDWQRIPRSLRASGGTLTSGLSGLKKDEIPTRMNPALDRKSHFEGLNALASPAVGTSYAAAISLLQSPMAGLDERNKQKFNVKAAIVFYDAFTPEGKQRYLAGEEMDPDRDVDQAKLRGVFTSVSEYMVKSTQENLKQRQKVLGVEISEAGHALNALPENTSSISAPEIRAKVERYKALSADMSAVTQAIREGNPNFLTDLPDGEVKKAFDDCVNSGGMHVLENMTKVKYAKQGELKAQWTQKVSTDVSMFGLAGQFTPSIVNKLAAAICGGAGHIPNAVVGFLGAYSLAASFIGAQTQFAAINAKNNFREGNPKPTSLETFMRGNLAPVMQASANRHSQHALQGAEQAISTARQALNSSLGQNLRRRPSARTQQE
- binding [1]: binds
- binding [2]: no binding

Results are given in words; binding and its absence hold for the method and conditions named. Binding seen in cells or lysates may run through a third protein. For some assays here: Binding calls can cover weak binding; strength is not graded here. Tags and fused reporters may be left off the sequences shown.
